Here are results for one molecule from publication PMC12041353.

Amino acid sequences for entries named in this document (tags omitted).
UniProt Q9GZV5: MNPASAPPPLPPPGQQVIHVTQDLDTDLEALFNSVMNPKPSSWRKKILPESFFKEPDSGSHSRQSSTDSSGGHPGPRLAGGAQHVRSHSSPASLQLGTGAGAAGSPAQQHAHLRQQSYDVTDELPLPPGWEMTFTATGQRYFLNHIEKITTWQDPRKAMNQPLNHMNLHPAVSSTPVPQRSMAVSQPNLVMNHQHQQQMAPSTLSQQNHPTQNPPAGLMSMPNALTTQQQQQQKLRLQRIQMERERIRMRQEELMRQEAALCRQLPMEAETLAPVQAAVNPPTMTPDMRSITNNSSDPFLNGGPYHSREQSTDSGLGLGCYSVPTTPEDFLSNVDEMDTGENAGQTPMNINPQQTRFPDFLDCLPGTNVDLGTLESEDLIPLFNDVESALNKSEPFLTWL

These are yes or no findings as the source states them, for the method shown. Binding seen in cells or lysates may run through a third protein. These calls come from enrichment with a bait or labelling near it, and not all partners need be listed.

This assay addresses TAZ (transcriptional coactivator with PDZ-binding motif), endogenous (human (endogenous in T24)) (UniProt Q9GZV5). The assay can be described thus: affinity purification with mass spectrometry; IP in T24 cells followed by mass spectrometry to identify TAZ-interacting proteins.

B1: NRF2 (nuclear factor erythroid 2-related factor 2), endogenous (protein, UniProt Q16236 1-605)
chain: MMDLELPPPGLPSQQDMDLIDILWRQDIDLGVSREVFDFSQRRKEYELEKQKKLEKERQEQLQKEQEKAFFAQLQLDEETGEFLPIQPAQHIQSETSGSANYSQVAHIPKSDALYFDDCMQLLAQTFPFVDDNEVSSATFQSLVPDIPGHIESPVFIATNQAQSPETSVAQVAPVDLDGMQQDIEQVWEELLSIPELQCLNIENDKLVETTMVPSPEAKLTEVDNYHFYSSIPSMEKEVGNCSPHFLNAFEDSFSSILSTEDPNQLTVNSLNSDATVNTDFGDEFYSAFIAEPSISNSMPSPATLSHSLSELLNGPIDVSDLSLCKAFNQNHPESTAEFNDSDSGISLNTSPSVASPEHSVESSSYGDTLLGLSDSEVEELDSAPGSVKQNGPKTPVHSSGDMVQPLSPSQGQSTHVHDAQCENTPEKELPVSPGHRKTPFTKDKHSSRLEAHLTRDELRAKALHIPFPVEKIINLPVVDFNEMMSKEQFNEAQLALIRDIRRRGKNKVAAQNCRKRKLENIVELEQDLDHLKDEKEKLLKEKGENDKSLHLLKKQLSTLYLEVFSMLRDEDGKPYSPSEYSLQQTRDGNVFLVPKSKKPDVKKN
For the molecule B1, the binding entry is “binds”.
